# The other results are listed elsewhere or left out. Values are raw readings; no control value is given beside them.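 In the initial screen, polymyxin B was used at a concentration that permeabilizes Salmonella's outer membrane but not its inner membrane. Maximum growth was set by DMSO wells with or without polymyxin B. Since plates varied, data were ranked per plate, and compounds giving the lowest OD600 advanced as hits.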
# Test system: Salmonella enterica serovar Typhimurium SL1344
# Assay: bacterial growth OD600 after 18 h with compound and polymyxin B; higher = more bacterial growth (less inhibition)
# Details: 50 µM, Mueller-Hinton broth
SMILES,bacterial growth OD600 (polymyxin B 1 µg/mL),bacterial growth OD600 (polymyxin B 0.75 µg/mL)
CSCC(=O)N1CCCC(C(=O)c2ccc(-c3ccccc3)cc2)C1 (stereo unspecified),0.011,–
COc1cc(NC(=O)CCC2CCCN(Cc3ccc(F)c(OC)c3)C2)cc(OC)c1 (stereo unspecified),1.13,–
Cc1nn(C)c(C)c1CN(C)C(=O)c1coc(COc2ccc(F)cc2)n1,1.03,–
CN1CCN([C@@H]2CCN(Cc3ccc(Cn4cccn4)cc3)C[C@H]2O)CC1,–,0.865
CC(C)N(Cc1nccn1C)c1nc2nonc2nc1NCc1ccccc1,–,0.334
COCC(C)N1CCC(Oc2ccc(C(=O)NC3CCCC3)cc2Cl)CC1 (stereo unspecified),1.12,–
Cc1ccccc1N1CCN(C2CCCN(C(=O)CCC(F)(F)F)C2)CC1 (stereo unspecified),0.937,–
C=CCS(=O)(=O)N1CCCC(CCc2ccc(F)cc2F)C1 (stereo unspecified),–,0.082
CCOC(=O)C1(Cc2ccccc2F)CCCN(C(=O)c2c(C)nc3sccn23)C1 (stereo unspecified),0.001,–
CCC1C(=O)NCCN1C(=O)c1ccc(OC2CCN(C(=O)C3CC3)CC2)cc1 (stereo unspecified),0.901,–
O=C(c1ccccc1F)N1CCC(C2(Cc3ccc(F)cc3)NC(=O)N(C3CCOC3)C2=O)CC1 (stereo unspecified),–,0.885
CC(CNCc1cc(NS(C)(=O)=O)cc(C(=O)Nc2ccccc2)c1)c1ccccc1 (stereo unspecified),–,0.962
O=C(/C=C/c1ccc(F)c(F)c1)NCC1CCC2(CCN(Cc3ccccc3F)CC2)O1 (stereo unspecified),–,0.819
CCN(C(=O)C1CCOCC1)C(Cc1ccccc1)C1CCN(Cc2c(F)ccc(F)c2F)CC1 (stereo unspecified),–,0.928
O=C(c1ccoc1)N1CCCC(N2CCN(Cc3ccc4c(c3)OCO4)CC2)C1 (stereo unspecified),0.96,–
CCOC(=O)C1(CC2CCCCO2)CCN(C(=O)Nc2ccc(SC)cc2)CC1 (stereo unspecified),0.787,–

SMILES,bacterial growth OD600 (polymyxin B 1 µg/mL),bacterial growth OD600 (polymyxin B 0.75 µg/mL)
COc1ccccc1C1CN(CCNC(=O)c2ccc(C(C)=O)cc2)Cc2ccccc2O1 (stereo unspecified),–,0.631
COc1ccc(CCN2C(=O)O[C@@H]3CN(C(=O)NCc4ccccc4)C[C@@H]32)cc1,0.886,–
COCCN(Cc1nc(-c2cc(F)ccc2F)oc1C)C(C)C,0.956,–
Cc1cccc(C)c1OCc1cc(C(=O)N2CCCC(C(=O)c3nccn3C)C2)no1 (stereo unspecified),0.922,–
Cc1cccc(OCC(=O)N2CCC(C3CCN(CC(C)C)CC3)C2)c1 (stereo unspecified),–,0.966
O=C(c1cc(COc2c(F)cccc2F)on1)N1CCN(C2CCCCC2)CC1,0.869,–
CCN(CC1CCCO1)C(=O)CC1(c2cccc(C(F)(F)F)c2)CC(=O)N(CC)C1=O (stereo unspecified),–,0.735
CN(Cc1ccccc1)C(=O)CCC1CCN(C(=O)CCN2CCCO2)CC1,0.979,–
CC(C)CCCC1CN(C(=O)c2cnc[nH]2)CCO1 (stereo unspecified),–,0.852
Cc1ncccc1C(=O)N1CCC(C2CCN(c3ncccn3)CC2)C1 (stereo unspecified),0.994,–
O=C(c1cn(C2CCCCC2)nn1)N(CCO)Cc1ccccc1,0.814,–
COC(=O)[C@@H](NC(=O)C1CCCN1c1nc(C)c2ccc(S(C)(=O)=O)cc2n1)C(C)C (stereo partly specified),–,0.942
CCC1CN(Cc2ccc(C#CC(C)(C)O)cc2)Cc2cc(OC)ccc2O1 (stereo unspecified),–,0.042
COCc1ccc(C(=O)N2CCCC(CCc3ccc(F)cc3F)C2)o1 (stereo unspecified),–,0.643
CCN1C(=O)CC(CC(=O)N(C)CCc2cnn(C)c2)(c2cccc(C(F)(F)F)c2)C1=O (stereo unspecified),–,0.819

# One compound at a time, from the list above.
# `CCN(C(=O)C1CCOCC1)C(Cc1ccccc1)C1CCN(Cc2c(F)ccc(F)c2F)CC1` (stereo unspecified) as listed: bacterial growth OD600 (polymyxin B 0.75 µg/mL): 0.928
# `COCC(C)N1CCC(Oc2ccc(C(=O)NC3CCCC3)cc2Cl)CC1` (stereo unspecified) as listed: bacterial growth OD600 (polymyxin B 1 µg/mL): 1.12

# Reference: the supplement of paper PMC12889115
